{"source": "PubChem BioAssay AID1259327 (Drosophila RNAi Screening Center, 2017)", "purpose": "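Data from controls in screens of zinc and manganese toxicity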", "system": "Drosophila S2R+ cells", "reagents": "long dsRNA against Drosophila genes", "time to read-out": "5 days (water added on day 4, read one day later)", "treatment": "water added as vehicle, no metal, one day before read-out", "measurement": "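Luciferase ATP signal per well, normalised to plate mean, duplicate average converted to z-score across plates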", "reading the numbers": "ATP z-score: higher = more total ATP than typical wells; ATP luminescence: higher = more total ATP", "call rule": "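Called active when the ATP z-score exceeds 1.5 or falls below -1.5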", "meaning of the calls": "active = hit: ATP up or down; inactive = no clear ATP change", "note": "This is one part, drawn at random, of about 3,100 deposited reagents. In the full data, 378 (12%) were called active. 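Hits include both directions; z-score sign shows ATP rise or fall; raw luminescence values are not plate-normalised.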 A plus sign joins genes that one reagent is predicted to hit. Reagent sequences are not shown. Not stated in the record: the amount of reagent."}
{"target gene": "Task6", "DRSC id": "DRSC16530", "ATP z-score, duplicate mean": 0.487, "ATP luminescence, replicate 1 (RLU)": 3.14e5, "ATP luminescence, replicate 2 (RLU)": 8.33e5, "Outcome": "inactive"}
{"target gene": "Task6", "DRSC id": "DRSC39545", "ATP z-score, duplicate mean": -1.74, "ATP luminescence, replicate 1 (RLU)": 3.74e5, "ATP luminescence, replicate 2 (RLU)": 3.04e5, "Outcome": "active"}
{"target gene": "Cox10", "DRSC id": "DRSC02804", "ATP z-score, duplicate mean": 0.287, "ATP luminescence, replicate 1 (RLU)": 5.34e5, "ATP luminescence, replicate 2 (RLU)": 4.61e5, "Outcome": "inactive"}
{"target gene": "Cox10", "DRSC id": "DRSC39538", "ATP z-score, duplicate mean": 0.259, "ATP luminescence, replicate 1 (RLU)": 4.64e5, "ATP luminescence, replicate 2 (RLU)": 4.76e5, "Outcome": "inactive"}
{"target gene": "CG14439", "DRSC id": "DRSC17931", "ATP z-score, duplicate mean": 0.218, "ATP luminescence, replicate 1 (RLU)": 5.99e5, "ATP luminescence, replicate 2 (RLU)": 6.92e5, "Outcome": "inactive"}
{"target gene": "CG14439", "DRSC id": "DRSC39551", "ATP z-score, duplicate mean": 0.623, "ATP luminescence, replicate 1 (RLU)": 4.69e5, "ATP luminescence, replicate 2 (RLU)": 5.48e5, "Outcome": "inactive"}
{"target gene": "PK1-R", "DRSC id": "DRSC16577", "ATP z-score, duplicate mean": -0.985, "ATP luminescence, replicate 1 (RLU)": 2.29e5, "ATP luminescence, replicate 2 (RLU)": 7.22e5, "Outcome": "inactive"}
{"target gene": "Balat + asRNA:CR43469", "DRSC id": "DRSC06852", "ATP z-score, duplicate mean": 0.455, "ATP luminescence, replicate 1 (RLU)": 7.34e5, "ATP luminescence, replicate 2 (RLU)": 8.26e5, "Outcome": "inactive"}
{"target gene": "Balat + asRNA:CR43469", "DRSC id": "DRSC39492", "ATP z-score, duplicate mean": 0.793, "ATP luminescence, replicate 1 (RLU)": 5.54e5, "ATP luminescence, replicate 2 (RLU)": 4.60e5, "Outcome": "inactive"}

2 entries from above, ordered by “ATP luminescence, replicate 2 (RLU)”, low to high:
{"target gene": "Task6", "DRSC id": "DRSC39545", "ATP z-score, duplicate mean": -1.74, "ATP luminescence, replicate 1 (RLU)": 3.74e5, "ATP luminescence, replicate 2 (RLU)": 3.04e5, "Outcome": "active"}
{"target gene": "Task6", "DRSC id": "DRSC16530", "ATP z-score, duplicate mean": 0.487, "ATP luminescence, replicate 1 (RLU)": 3.14e5, "ATP luminescence, replicate 2 (RLU)": 8.33e5, "Outcome": "inactive"}

The results go on:
{"target gene": "CG14234", "DRSC id": "DRSC19317", "ATP z-score, duplicate mean": 1.15, "ATP luminescence, replicate 1 (RLU)": 6.59e5, "ATP luminescence, replicate 2 (RLU)": 7.88e5, "Outcome": "inactive"}
{"target gene": "CG14234", "DRSC id": "DRSC19589", "ATP z-score, duplicate mean": 0.0926, "ATP luminescence, replicate 1 (RLU)": 7.36e5, "ATP luminescence, replicate 2 (RLU)": 7.70e5, "Outcome": "inactive"}
{"target gene": "Lrp4", "DRSC id": "DRSC20118", "ATP z-score, duplicate mean": 1.13, "ATP luminescence, replicate 1 (RLU)": 8.18e5, "ATP luminescence, replicate 2 (RLU)": 8.26e5, "Outcome": "inactive"}
{"target gene": "put", "DRSC id": "DRSC17039", "ATP z-score, duplicate mean": 0.814, "ATP luminescence, replicate 1 (RLU)": 8.14e5, "ATP luminescence, replicate 2 (RLU)": 7.66e5, "Outcome": "inactive"}
{"target gene": "put", "DRSC id": "DRSC36611", "ATP z-score, duplicate mean": 0.963, "ATP luminescence, replicate 1 (RLU)": 6.44e5, "ATP luminescence, replicate 2 (RLU)": 6.79e5, "Outcome": "inactive"}
{"target gene": "put", "DRSC id": "DRSC36612", "ATP z-score, duplicate mean": 0.011, "ATP luminescence, replicate 1 (RLU)": 5.00e5, "ATP luminescence, replicate 2 (RLU)": 6.62e5, "Outcome": "inactive"}
{"target gene": "Lgr1", "DRSC id": "DRSC16675", "ATP z-score, duplicate mean": 0.231, "ATP luminescence, replicate 1 (RLU)": 3.25e5, "ATP luminescence, replicate 2 (RLU)": 7.48e5, "Outcome": "inactive"}
{"target gene": "Lgr1", "DRSC id": "DRSC39668", "ATP z-score, duplicate mean": -0.574, "ATP luminescence, replicate 1 (RLU)": 4.17e5, "ATP luminescence, replicate 2 (RLU)": 4.36e5, "Outcome": "inactive"}
{"target gene": "CG12194", "DRSC id": "DRSC00345", "ATP z-score, duplicate mean": -0.275, "ATP luminescence, replicate 1 (RLU)": 6.93e5, "ATP luminescence, replicate 2 (RLU)": 7.01e5, "Outcome": "inactive"}
{"target gene": "CG12194", "DRSC id": "DRSC24918", "ATP z-score, duplicate mean": -0.26, "ATP luminescence, replicate 1 (RLU)": 9.78e5, "ATP luminescence, replicate 2 (RLU)": 1.05e6, "Outcome": "inactive"}
{"target gene": "CG1607", "DRSC id": "DRSC15130", "ATP z-score, duplicate mean": -0.535, "ATP luminescence, replicate 1 (RLU)": 6.48e5, "ATP luminescence, replicate 2 (RLU)": 6.53e5, "Outcome": "inactive"}
{"target gene": "CG1607", "DRSC id": "DRSC27010", "ATP z-score, duplicate mean": -1.11, "ATP luminescence, replicate 1 (RLU)": 8.92e5, "ATP luminescence, replicate 2 (RLU)": 9.75e5, "Outcome": "inactive"}
{"target gene": "Osi10b", "DRSC id": "DRSC12279", "ATP z-score, duplicate mean": -0.82, "ATP luminescence, replicate 1 (RLU)": 8.30e5, "ATP luminescence, replicate 2 (RLU)": 7.49e5, "Outcome": "inactive"}
{"target gene": "Osi10b", "DRSC id": "DRSC39619", "ATP z-score, duplicate mean": 0.0333, "ATP luminescence, replicate 1 (RLU)": 4.26e5, "ATP luminescence, replicate 2 (RLU)": 5.10e5, "Outcome": "inactive"}
{"target gene": "Tsp68C", "DRSC id": "DRSC09295", "ATP z-score, duplicate mean": -0.135, "ATP luminescence, replicate 1 (RLU)": 6.06e5, "ATP luminescence, replicate 2 (RLU)": 7.65e5, "Outcome": "inactive"}
{"target gene": "Tsp68C", "DRSC id": "DRSC28942", "ATP z-score, duplicate mean": 0.353, "ATP luminescence, replicate 1 (RLU)": 9.65e5, "ATP luminescence, replicate 2 (RLU)": 7.75e5, "Outcome": "inactive"}
